Measured values published in patent US8470891B2, “Biodegradable block polymers for drug delivery, and methods related thereto” (International Business Machines Corporation, priority 2009, dated 2013).
Values after ≈ are worked out from the molar mass of the structure shown.

System: HepG2 cells
Assay: Cytotoxicity study using HepG2 cells
Format: cell-based
Details: free DOX

## COc1cccc2c1C(=O)c1c(O)c3c(c(O)c1C2=O)C[C@@](O)(C(=O)CO)C[C@@H]3O[C@H]1C[C@H](N)[C@H](O)[C@H](C)O1 [DOX, doxorubicin]
  IC50 value: 1.14 mg/L (≈ 2.1 µM)
